Data on one substance can be found in paper PMC6775667.

Sequences of proteins named here, by UniProt entry; tags and fusion partners are left off.
UniProt P60484: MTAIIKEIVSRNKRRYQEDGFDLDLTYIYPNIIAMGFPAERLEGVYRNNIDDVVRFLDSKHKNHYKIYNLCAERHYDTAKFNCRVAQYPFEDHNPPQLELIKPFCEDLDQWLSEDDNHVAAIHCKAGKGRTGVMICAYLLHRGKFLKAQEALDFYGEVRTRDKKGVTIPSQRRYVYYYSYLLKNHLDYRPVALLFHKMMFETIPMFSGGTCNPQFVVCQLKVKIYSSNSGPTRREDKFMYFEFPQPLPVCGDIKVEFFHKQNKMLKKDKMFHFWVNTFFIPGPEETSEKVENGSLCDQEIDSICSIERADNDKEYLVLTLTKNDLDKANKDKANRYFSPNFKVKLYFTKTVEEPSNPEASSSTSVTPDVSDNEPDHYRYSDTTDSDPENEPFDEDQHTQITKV
UniProt P51784: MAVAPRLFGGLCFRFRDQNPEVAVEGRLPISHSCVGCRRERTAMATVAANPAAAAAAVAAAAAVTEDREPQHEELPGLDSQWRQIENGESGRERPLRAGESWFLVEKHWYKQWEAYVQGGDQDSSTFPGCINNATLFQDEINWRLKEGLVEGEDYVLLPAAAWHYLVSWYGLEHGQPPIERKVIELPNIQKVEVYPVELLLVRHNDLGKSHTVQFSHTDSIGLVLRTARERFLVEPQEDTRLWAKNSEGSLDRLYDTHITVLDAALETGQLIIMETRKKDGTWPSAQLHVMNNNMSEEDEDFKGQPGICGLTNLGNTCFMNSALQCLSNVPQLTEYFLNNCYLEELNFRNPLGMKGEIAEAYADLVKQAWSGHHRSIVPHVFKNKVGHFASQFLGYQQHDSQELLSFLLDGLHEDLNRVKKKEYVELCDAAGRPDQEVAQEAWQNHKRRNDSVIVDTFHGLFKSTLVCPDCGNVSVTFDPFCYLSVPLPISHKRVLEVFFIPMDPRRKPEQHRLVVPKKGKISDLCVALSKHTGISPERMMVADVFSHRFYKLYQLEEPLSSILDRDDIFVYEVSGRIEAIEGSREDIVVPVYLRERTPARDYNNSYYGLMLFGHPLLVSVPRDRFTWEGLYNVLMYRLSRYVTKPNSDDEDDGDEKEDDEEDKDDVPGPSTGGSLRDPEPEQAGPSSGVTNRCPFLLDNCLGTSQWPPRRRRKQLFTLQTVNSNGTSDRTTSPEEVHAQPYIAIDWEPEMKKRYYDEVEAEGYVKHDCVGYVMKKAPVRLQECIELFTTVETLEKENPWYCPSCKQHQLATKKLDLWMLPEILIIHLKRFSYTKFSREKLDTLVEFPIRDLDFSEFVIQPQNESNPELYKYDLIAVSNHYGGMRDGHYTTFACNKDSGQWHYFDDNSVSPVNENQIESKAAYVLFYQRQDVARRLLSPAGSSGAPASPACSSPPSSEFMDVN

The assay has as its target PTEN (human (endogenous in ACHN, 786-O, Caki-1)) (UniProt P60484). Put plainly: co-IP; cell lysates incubated with 3 ug PTEN antibody (Abcam) and Dynabeads Protein G at 4 °C overnight, western blot of the precipitate; ACHN and 786-O cells with lnc-DILC overexpression, Caki-1 cells with lnc-DILC knock-down.

These are yes or no findings as the source states them, for the method shown. In cells and extracts the contact can be indirect. Some binding calls cover weakened binding; strength is not graded here.

Take “deubiquitinase USP11 (from UniProt P51784 1-963) (enzyme)”: the binding result was “binds”.
